Screen size: about 340,000 compounds; about 6,200 (1.8%) were called active. The inconclusive results got no clear call from the source; some entries with a clear call stand among them for comparison. Calls come from the whole dose curve; as a rule, active = well fitted activation curve with a large enough effect; inconclusive = small, poorly fitted or top-dose-only effect; inactive = no such curve, though single readings can be large or run the other way. Potencies beside an inconclusive call are fits to weak or partial responses and may not hold up.
Assay: A quantitative high throughput screen for small molecules that induce DNA re-replication in SW480 colon adenocarcinoma cells. Note: nearly all actives have a fitted effect of over 55% in size.
Settings: Hoechst DNA content imaging, 48 h; series mostly up to 46.1 µM
In short: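 Image-based DNA-content assay: after two days of treatment, nuclei were labelled with the DNA dye Hoechst and imaged, and hits were compounds raising the count of nuclei showing high fluorescence intensity.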
Potency is the fitted concentration of half-maximal effect.

SMILES | Potency
N#CC1(NC(=O)Cn2cc(C(F)(F)F)ccc2=O)CCCC1 | inactive
CCCc1ccc(C(=O)Cn2nc(C(=O)O)c3ccccc3c2=O)cc1 | inconclusive: 1.64 µM [activator, full curve, poor fit]
O=C(CCNC(=O)c1ccc(Br)cc1)NC1CCCCCC1 | inactive
CC(=O)Nc1ccc(NC(=O)C(C)Oc2ccc(Cl)cc2Cl)cc1 (centres undefined) | inconclusive: 4.61 µM [activator, full curve, poor fit]
CCOc1ccc(NC(=S)N=Nc2c(O)[nH]c3ccccc23)cc1 | inconclusive: 18.4 µM [activator, single point]
Cc1cc(O)c(C=O)c2c1C(=O)Oc1c(CO)c(O)c3c(c1O2)C(O)OC3=O (centres undefined) | inconclusive: 0.116 µM [activator, partial curve, poor fit]
O=C(COc1ccc(Cl)cc1Cl)Nc1ccccc1F | inconclusive: 1.64 µM [activator, partial curve, poor fit]
Cc1ccc(-n2cc(CNCCCn3cccn3)c(-c3cccc(C)c3)n2)cc1 | inactive
CCOC(=O)c1c(NC(=S)NNS(=O)(=O)c2ccc(Br)cc2)sc2c1CCCCC2 | inactive
CSCCC(NC(=O)c1ccccc1Br)C(=O)NCC1CCCCC1 (centres undefined) | inconclusive: 0.206 µM [activator, partial curve, poor fit]
Cc1cccc(CN2CCSc3sccc3C2=O)c1 | inconclusive: 6.51 µM [activator, single point]
C[C@@H]1CCN(C(=O)[C@H](CCCNC(=N)N)NS(=O)(=O)c2cccc3c2NC[C@H](C)C3)[C@@H](C(=O)O)C1 | inactive
COc1ccc(/C=C/C(=O)N(CCC(N)=O)c2ccccc2)cc1S(=O)(=O)N1CCOCC1 | active: 4.61 µM
CCN(CC)CCCNC(=O)c1cc2c(Cl)nc3ccccc3c2s1 | inconclusive: 25.9 µM [activator, single point]
CCC(C)N(C)Cc1cccc(C2(O)CCN(S(=O)(=O)c3ccc(F)cc3)CC2)c1 (centres undefined) | inconclusive: 29.1 µM [activator, single point]
CCCCCCCSc1ncnc2[nH]ncc12 | inconclusive: 29.1 µM [activator, single point]
Cc1ccc(S(=O)(=O)N2CCC(C(=O)OCC(=O)NCc3ccco3)CC2)cc1C | inconclusive: 29.1 µM [activator, partial curve, poor fit]
CC1CCCCN1C(=S)NC(=O)c1ccco1 (centres undefined) | inactive
Cc1ccc(S(=O)(=O)N(Cc2ccc([N+](=O)[O-])cc2)C(=O)N2CCN(C)CC2)cc1 | inactive
COc1ccc(/C=C(/NC(=O)c2cccc([N+](=O)[O-])c2)C(=O)O)cc1 | inactive
O=[N+]([O-])c1ccccc1S(=O)(=O)N(CC1CO1)c1ccccc1 (centres undefined) | inconclusive: 4.11 µM [activator, partial curve, poor fit]
Cc1cccc(NC(=S)NNC(=O)CCn2nc(C)c([N+](=O)[O-])c2C)c1 | inconclusive: 20.6 µM [activator, single point]

SMILES | Potency
O=C(CSc1nc(C2CCCCC2)nc2ccccc12)N1CCCC1 | inconclusive: 29.1 µM [activator, single point]
COc1ccc(CNC(=O)CCCC(=O)n2nc(C)c3ccccc32)cc1 | inactive
COc1ccc(/C=C/C(=O)c2ccc(OC)cc2OC)c(OC)c1 | inconclusive: 20.6 µM [activator, single point]
CCOc1ccc(NC(=O)CN(C)C(=O)c2c(C)nn(-c3ccc(F)cc3)c2Cl)cc1OCC | inactive
CC(C)C(=O)N1CCN(c2ccccc2NC(=O)c2ccc([N+](=O)[O-])o2)CC1 | inconclusive: 29.1 µM [activator, single point]
COC(=O)N/N=C(\C)c1ccc(-n2ccnc2)cc1 | inconclusive: 0.116 µM [activator, full curve, poor fit]
CCOC(=O)N1CCN(C(=O)COC(=O)c2ccc([N+](=O)[O-])cc2Cl)CC1 | inactive
O=[N+]([O-])c1ccc(O)c(-c2nc(-c3ccccc3)c(-c3cccs3)[nH]2)c1 | inconclusive: 20.6 µM [activator, single point]
Cc1cccc(NC(=O)c2nc[nH]c2C(=O)N[C@@H](CC(C)C)C(=O)OCc2ccccc2)c1 | inconclusive: 29.1 µM [activator, single point]
CCOC(=O)c1[nH]c2c(c1-c1ccccc1)C(=O)CC(c1ccccc1)C2 (centres undefined) | inconclusive: 32.6 µM [activator, partial curve, poor fit]
C=CCN1C(=O)C(O)(CC(=O)c2ccc(-n3cccc3)cc2)c2ccccc21 (centres undefined) | inconclusive: 20.6 µM [activator, single point]
COc1ccccc1NC(=O)C1=C(C)NC(SCC(=O)c2ccccc2)=C(C#N)C1c1ccco1 (centres undefined) | inconclusive: 29.1 µM [activator, single point]
O=C(O)c1ccc(N2C(=O)CSC2=S)cc1 | inactive
COc1cc2c(cc1OC)CN(C(=O)/C=C/c1cccs1)CC2 | active: 13 µM
O=C(COc1cccnc1[N+](=O)[O-])N1N=C(c2ccc(Cl)cc2)CC1c1ccco1 (centres undefined) | inactive
COc1cc(Br)c(CC(=O)NNC(=O)c2ccc(F)cc2)cc1OC | inactive
Cc1ccc2c(c1)N(C(=O)NC1CCCCC1)C(C)(C)CC2C (centres undefined) | inconclusive: 23.1 µM [activator, single point]
Cc1ccc(C(C(=O)NCc2ccco2)N(C(=O)CNC(=O)c2cccs2)c2c(C)cccc2C)cc1 (centres undefined) | inconclusive: 18.4 µM [activator, single point]
COc1ccc(S(=O)(=O)N(C)C)cc1NC(=O)COC(=O)C1CC1 | inactive
O=C(COC(=O)c1cccc(Cl)c1Cl)NCc1cccs1 | inconclusive: 32.6 µM [activator, single point]
COc1ccc(N(CC(=O)N2CCOCC2)S(C)(=O)=O)cc1OC | inactive
Nc1c2c(nc3c1CCCC3)CCCC2 (tested in a mixture with another compound) | inactive

Reprinted at random: 2 entries already listed
SMILES | Potency
COC(=O)N/N=C(\C)c1ccc(-n2ccnc2)cc1 | inconclusive: 0.116 µM [activator, full curve, poor fit]
COc1ccc(/C=C/C(=O)c2ccc(OC)cc2OC)c(OC)c1 | inconclusive: 20.6 µM [activator, single point]

Source: PubChem BioAssay AID624297 (National Center for Advancing Translational Sciences (NCATS), 2012)
